Test results reported in PubChem BioAssay AID540256 (National Center for Advancing Translational Sciences (NCATS), 2011).
Among all 300,000 compounds or so, about 3,700 (1.2%) were called active. Inconclusive means that the source gave no clear call. Such entries were picked first, then a sample of the others. The call rests on the fitted dose curve; tested in HEK293 cells. A potency beside an inconclusive call is a rough fit, not a confirmed value.

Test: qHTS for Inhibitors of binding or entry into cells for Lassa Virus; further: nearly all actives have a fitted effect of over 50% in size
Conditions: Lassa virus pseudotype entry inhibition, cell reporter; series mostly up to 37.9 µM
Potency means the concentration at half of the fitted maximal effect.

Compound | Potency
COc1cccc(Cn2c(SCc3ccc(C(=O)N4CCC(C)CC4)cc3)nc3ccncc32)c1 | inconclusive: 7.08 µM [inhibitor, partial curve, poor fit]
CCOC(=O)[C@H]1NN=C(C(=O)OC)[C@@H]1c1ccccc1 | inconclusive: 3.98 µM [activator, single point]
COC(=O)[C@@H](NC(=O)O[C@H]1C(=O)c2ccc(OC)cc2O[C@@H]1c1ccc2c(c1)OCO2)C(C)C | inconclusive: 10.3 µM [inhibitor, partial curve, poor fit]
CC(C)CCN1CCN(Cc2ccc3nsnc3c2)CC1CCO (stereo not given) | inconclusive: 11.2 µM [activator, partial curve]
Cc1ccc(OCc2nnc(N)s2)cc1 | inconclusive: 25.1 µM [activator, single point]
CSc1ccc(Cl)c(C(=O)Nc2cc(S(=O)(=O)N3CCOCC3)ccc2N2CCOCC2)c1 | inconclusive: 10 µM [inhibitor, partial curve]
COC(=O)c1sccc1N/N=C/c1cccc(Oc2ccccc2)c1 | inconclusive: 29.1 µM [inhibitor, single point]
COc1ccccc1COC(=O)c1cccc(S(=O)(=O)N2CCCC2)c1 | inconclusive: 10 µM [inhibitor, partial curve, poor fit]
CN1C(=O)CSc2ccc(NC(=O)Nc3ccccn3)cc21 | inconclusive: 6.51 µM [activator, partial curve, poor fit]
CCN(CC)c1ccc2nc3ccc(N)cc3[n+](-c3ccccc3)c2c1 | active: 8.91 µM
O=C(Nc1ccccc1N1CCN(C(=O)c2ccccc2)CC1)c1ccc(Cl)cc1 | inconclusive: 31.6 µM [inhibitor, partial curve, poor fit]
Cc1ccc(S(=O)(=O)NC(=O)COc2ccccc2C)c(C)c1 | inconclusive: 2.51 µM [activator, full curve, poor fit]
Cc1cc(-c2nc3ncccc3o2)ccc1NC(=O)COc1ccc(C(C)(C)C)cc1 | inconclusive: 8.91 µM [activator, partial curve, poor fit]
CCN1/C(=C/c2cc[n+](CCCS(=O)(=O)[O-])c3ccccc23)Sc2ccccc21 | inconclusive: 3.55 µM [inhibitor, partial curve, poor fit]
Cc1ccc(NC(=O)CN2C(=O)C(c3ccccc3)=NC2(C)C)cc1C | inactive
COc1cccc(C(=O)Nc2ccc3c(c2)CCCN3C(=O)c2cccs2)c1OC | inconclusive: 15.8 µM [inhibitor, single point]
[O-]/C(=C(\C(=S)Nc1ccc(SC(F)F)cc1)[n+]1ccccc1)c1ccc(Cl)cc1Cl | inconclusive: 12.6 µM [inhibitor, partial curve, poor fit]
CC1CCN(C(=O)N2c3ccccc3Sc3ccccc32)CC1 | inconclusive: 35.5 µM [inhibitor, single point]
COc1cc(NC(=O)C2CC2)c(OC)cc1NC(=O)c1ccco1 | inactive
CCCCNCc1cc(Br)c(OCc2cccs2)c(OC)c1 | inconclusive: 10 µM [inhibitor, partial curve]

Quoted at random: 2 entries already listed, in no set order.
Compound | Potency
CSc1ccc(Cl)c(C(=O)Nc2cc(S(=O)(=O)N3CCOCC3)ccc2N2CCOCC2)c1 | inconclusive: 10 µM [inhibitor, partial curve]
O=C(Nc1ccccc1N1CCN(C(=O)c2ccccc2)CC1)c1ccc(Cl)cc1 | inconclusive: 31.6 µM [inhibitor, partial curve, poor fit]

Following part

Compound | Potency
CCOc1ccc(NC(=O)CC2C(=O)N(c3ccc(OC)c(Cl)c3)C(=S)N2C2CC2)cc1 (stereo not given) | inconclusive: 6.31 µM [inhibitor, partial curve, poor fit]
CC(C)(C)C(=O)NC1CC2CCCC(C1)N2C(=O)Nc1ccc(Cl)cc1 (stereo not given) | inconclusive: 6.31 µM [inhibitor, single point]
CCOc1ccc(S(=O)(=O)n2nc(C)c(S(=O)(=O)N3CCCCCC3)c2C)cc1 | inactive
COc1ccc(C(=O)Nc2ccc(Cl)c(Cl)c2)c(OC)n1 | inconclusive: 0.708 µM [activator, partial curve, poor fit]
CCCCn1c(-c2csc3c2CCCC3)n[nH]c1=S | inactive
CC(=O)Nc1c(O)nc(SCC(=O)Nc2ccc(C(C)=O)cc2)[nH]c1=O | inconclusive: 9.2 µM [activator, partial curve]
Cc1ccc(NC(=O)N(Cc2ccc3c(c2)OCO3)Cc2cc3cc4c(cc3[nH]c2=O)OCCO4)cc1 | inconclusive: 8.2 µM [inhibitor, partial curve]
CCc1ccc(CN2C(=O)c3ccccc3C2C(=O)NC(C)CC)cc1 (stereo not given) | inconclusive: 3.55 µM [inhibitor, partial curve, poor fit]
COc1ccc(-c2[nH]c(-c3ccc(F)cc3)nc2SCC(=O)Nc2ccc(OC)c(OC)c2)cc1 | inactive
c1ccc(CSc2ccc(-c3ccccn3)nn2)cc1 | inconclusive: 10 µM [inhibitor, partial curve, poor fit]
COc1ccc(-c2cc(C)no2)cc1S(=O)(=O)Nc1cccc(C(F)(F)F)c1 | inactive
COc1ccccc1Nc1nc(N)nc(CSc2nccn2C)n1 | inactive
COc1ccc(CCNC(=O)Cn2c(C)c3cnn(-c4ccccc4)c(=O)c3c2C)cc1OC | inconclusive: 14.1 µM [activator, single point]
COc1cc(NC(=O)COC(=O)CCOc2ccc(C)cc2)cc(OC)c1 | inconclusive: 1.26 µM [activator, single point]
N#CCCn1cc(C(=O)Nc2ccc([N+](=O)[O-])cc2)c(-c2cc3ccccc3o2)n1 | inconclusive: 18.3 µM [inhibitor, single point]
Cc1ccc(-n2c(SCc3nc(-c4ccccc4C)no3)nnc2-c2ccncc2)cc1C | inconclusive: 35.5 µM [inhibitor, single point]
N#CCC(=O)N1CCCCCC1 | inconclusive: 0.794 µM [inhibitor, single point]
Cc1ccc(-n2c(SCC(=O)N3CCOCC3)nnc2-c2cccnc2)cc1 | inconclusive: 23.1 µM [activator, partial curve, poor fit]
CCOC(=O)c1c(-c2ccc(C)cc2)csc1NC(=O)c1ccc(C(C)(C)C)cc1 | inactive
O=C(Cc1ccccc1)NNC1CC(=O)N(c2ccc(Cl)cc2)C1=O (stereo not given) | inconclusive: 7.08 µM [inhibitor, partial curve, poor fit]
